Reference: the supplement of paper PMC8728848
The other results are listed elsewhere or left out.

Tests used:
Assay in all cases: glycan array binding signal (z-score within array); higher = stronger binding
Conditions in all cases: glycan notation: IUPAC condensed, linker removed
[1] = molecular target: Fuc(a1-2)Gal
Summary of the method: (§1)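 Glycan array binding is given as a within-array Z-score, which can be read as non-binding when negative. The arrays, 3228 of them, came from the Consortium for Functional Glycomics database and were retained only where the protein sequence was available. Z-scores were averaged across arrays of the same protein sequence at different concentrations or buffers and across linkers.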

[2] = molecular target: Fuc(a1-2)Gal(b1-3)GalNAc
Summary of the method: as §1

[3] = molecular target: Fuc(a1-2)Gal(b1-3)GalNAc(a1-3)[Fuc(a1-2)]Gal(b1-4)Glc
Summary of the method: as §1

[4] = molecular target: Fuc(a1-2)Gal(b1-3)GalNAc(a1-3)[Fuc(a1-2)]Gal(b1-4)GlcNAc
Summary of the method: as §1

[5] = molecular target: Fuc(a1-2)Gal(b1-3)GalNAc(b1-3)Gal
Summary of the method: as §1

[6] = molecular target: Fuc(a1-2)Gal(b1-3)GalNAc(b1-3)Gal(a1-4)Gal(b1-4)Glc
Summary of the method: as §1

[7] = molecular target: Fuc(a1-2)Gal(b1-3)GalNAc(b1-4)[Neu5Ac(a2-3)]Gal(b1-4)Glc
Summary of the method: as §1

[8] = molecular target: Fuc(a1-2)Gal(b1-3)GlcNAc
Summary of the method: as §1

[9] = molecular target: Fuc(a1-2)Gal(b1-3)GlcNAc(b1-2)Man(a1-3)[Fuc(a1-2)Gal(b1-3)GlcNAc(b1-2)Man(a1-6)]Man(b1-4)GlcNAc(b1-4)GlcNAc
Summary of the method: as §1

[10] = molecular target: Fuc(a1-2)Gal(b1-3)GlcNAc(b1-2)Man(a1-3)[Fuc(a1-2)Gal(b1-3)GlcNAc(b1-2)Man(a1-6)]Man(b1-4)GlcNAc(b1-4)[Fuc(a1-6)]GlcNAc
Summary of the method: as §1

[11] = molecular target: Fuc(a1-2)Gal(b1-3)GlcNAc(b1-3)Gal(b1-4)Glc
Summary of the method: as §1

[12] = molecular target: Fuc(a1-2)Gal(b1-3)GlcNAc(b1-3)GalNAc
Summary of the method: as §1

[13] = molecular target: Fuc(a1-2)Gal(b1-3)GlcNAc(b1-3)[Fuc(a1-2)Gal(b1-3)GlcNAc(b1-6)]GalNAc
Summary of the method: as §1

[14] = molecular target: Fuc(a1-2)Gal(b1-3)GlcNAc(b1-3)[Gal(b1-4)GlcNAc(b1-6)]Gal(b1-4)Glc
Summary of the method: as §1

[15] = molecular target: Fuc(a1-2)Gal(b1-3)GlcNAc(b1-3)[Neu5Ac(a2-6)Gal(b1-4)GlcNAc(b1-6)]Gal(b1-4)Glc
Summary of the method: as §1

[16] = molecular target: Fuc(a1-2)Gal(b1-3)GlcNAc6S
Summary of the method: as §1

[17] = molecular target: Fuc(a1-2)Gal(b1-3)[Fuc(a1-4)]GlcNAc
Summary of the method: as §1

[18] = molecular target: Fuc(a1-2)Gal(b1-3)[Fuc(a1-4)]GlcNAc(b1-2)Man(a1-3)[Fuc(a1-2)Gal(b1-3)[Fuc(a1-4)]GlcNAc(b1-2)Man(a1-3)]Man(b1-4)GlcNAc(b1-4)GlcNAc
Summary of the method: as §1

[19] = molecular target: Fuc(a1-2)Gal(b1-3)[Fuc(a1-4)]GlcNAc(b1-2)Man(a1-3)[Fuc(a1-2)Gal(b1-3)[Fuc(a1-4)]GlcNAc(b1-2)Man(a1-6)]Man(b1-4)GlcNAc(b1-4)[Fuc(a1-6)]GlcNAc(b1-4)[Fuc(a1-6)]GlcNAc
Summary of the method: as §1

[20] = molecular target: Fuc(a1-2)Gal(b1-3)[Fuc(a1-4)]GlcNAc(b1-3)[Fuc(a1-3)[Gal(b1-4)]GlcNAc(b1-6)]Gal(b1-4)Glc
Summary of the method: as §1

[21] = molecular target: Fuc(a1-2)Gal(b1-3)[Fuc(a1-4)]GlcNAc(b1-3)[Gal(b1-4)GlcNAc(b1-6)]Gal(b1-4)Glc
Summary of the method: as §1

[22] = molecular target: Fuc(a1-2)Gal(b1-4)Fuc(a1-3)]GlcNAc(b1-2)Man(a1-3)[Fuc(a1-2)Gal(b1-4)[Fuc(a1-3)]GlcNAc(b1-2)Man(a1-6)]Man(b1-4)GlcNAc(b1-4)GlcNAc
Summary of the method: as §1

[23] = molecular target: Fuc(a1-2)Gal(b1-4)Glc
Summary of the method: as §1

[24] = molecular target: Fuc(a1-2)Gal(b1-4)Glc6S
Summary of the method: as §1

[25] = molecular target: Fuc(a1-2)Gal(b1-4)GlcNAc
Summary of the method: as §1

[26] = molecular target: Fuc(a1-2)Gal(b1-4)GlcNAc(b1-2)Man
Summary of the method: as §1

[27] = molecular target: Fuc(a1-2)Gal(b1-4)GlcNAc(b1-2)Man(a1-3)[Fuc(a1-2)Gal(b1-4)GlcNAc(b1-2)Man(a1-6)]Man(b1-4)GlcNAc(b1-4)GlcNAc
Summary of the method: as §1

[28] = molecular target: Fuc(a1-2)Gal(b1-4)GlcNAc(b1-2)Man(a1-3)[Fuc(a1-2)Gal(b1-4)GlcNAc(b1-2)Man(a1-6)]Man(b1-4)GlcNAc(b1-4)[Fuc(a1-6)]GlcNAc
Summary of the method: as §1

[29] = molecular target: Fuc(a1-2)Gal(b1-4)GlcNAc(b1-2)[Fuc(a1-2)Gal(b1-4)GlcNAc(b1-4)]Man(a1-3)[Fuc(a1-2)Gal(b1-4)GlcNAc(b1-2)Man(a1-6)]Man(b1-4)GlcNAc(b1-4)GlcNAc
Summary of the method: as §1

[30] = molecular target: Fuc(a1-2)Gal(b1-4)GlcNAc(b1-3)Gal(b1-4)GlcNAc
Summary of the method: as §1

[31] = molecular target: Fuc(a1-2)Gal(b1-4)GlcNAc(b1-3)Gal(b1-4)GlcNAc(b1-2)Man(a1-3)[Fuc(a1-2)Gal(b1-4)GlcNAc(b1-3)Gal(b1-4)GlcNAc(b1-2)Man(a1-6)]Man(b1-4)GlcNAc(b1-4)GlcNAc
Summary of the method: as §1

[32] = molecular target: Fuc(a1-2)Gal(b1-4)GlcNAc(b1-3)Gal(b1-4)GlcNAc(b1-3)Gal(b1-4)GlcNAc
Summary of the method: as §1

[33] = molecular target: Fuc(a1-2)Gal(b1-4)GlcNAc(b1-3)GalNAc
Summary of the method: as §1

[34] = molecular target: Fuc(a1-2)Gal(b1-4)GlcNAc(b1-3)[Fuc(a1-2)Gal(b1-4)GlcNAc(b1-6)]GalNAc
Summary of the method: as §1

[35] = molecular target: Fuc(a1-2)Gal(b1-4)GlcNAc(b1-3)[Fuc(a1-3)[Gal(b1-4)]GlcNAc(b1-6)]Gal(b1-4)Glc
Summary of the method: as §1

[36] = molecular target: Fuc(a1-2)Gal(b1-4)GlcNAc(b1-6)GalNAc
Summary of the method: as §1

[37] = molecular target: Fuc(a1-2)Gal(b1-4)GlcNAc6S
Summary of the method: as §1

[38] = molecular target: Fuc(a1-2)Gal(b1-4)[Fuc(a1-3)]GlcNAc
Summary of the method: as §1

[39] = molecular target: Fuc(a1-2)Gal(b1-4)[Fuc(a1-3)]GlcNAc(b1-2)Man(a1-3)[Fuc(a1-2)Gal(b1-4)[Fuc(a1-3)]GlcNAc(b1-2)Man(a1-6)]Man(b1-4)GlcNAc(b1-4)[Fuc(a1-6)]GlcNAc
Summary of the method: as §1

[40] = molecular target: Fuc(a1-2)Gal(b1-4)[Fuc(a1-3)]GlcNAc(b1-2)[Fuc(a1-2)Gal(b1-4)[Fuc(a1-3)]GlcNAc(b1-4)]Man(a1-3)[Fuc(a1-2)Gal(b1-4)[Fuc(a1-3)]GlcNAc(b1-2)Man(a1-6)]Man(b1-4)GlcNAc(b1-4)GlcNAc
Summary of the method: as §1

[41] = molecular target: Fuc(a1-2)Gal(b1-4)[Fuc(a1-3)]GlcNAc(b1-3)Gal(b1-4)[Fuc(a1-3)]GlcNAc
Summary of the method: as §1

[42] = molecular target: Fuc(a1-2)Gal(b1-4)[Fuc(a1-3)]GlcNAc(b1-3)Gal(b1-4)[Fuc(a1-3)]GlcNAc(b1-3)Gal(b1-4)[Fuc(a1-3)]GlcNAc
Summary of the method: as §1

[43] = molecular target: Fuc(a1-2)Gal(b1-4)[Fuc(a1-3)]GlcNAc(b1-3)GalNAc
Summary of the method: as §1

[44] = molecular target: Fuc(a1-2)Gal(b1-4)[Fuc(a1-3)]GlcNAc(b1-3)[Neu5Ac(a2-6)Gal(b1-4)GlcNAc(b1-6)]Gal(b1-4)Glc
Summary of the method: as §1

[45] = molecular target: Fuc(a1-2)Gal3S(b1-4)GlcNAc
Summary of the method: as §1

B1: SUN4 (Saccharomyces cerevisiae), P53616 (protein)
chain: MGSSHHHHHHSSGLVPRGSHNGSIYGDLADFSGPYEKFEDGTIPCGQFPSGQGVIPISWLDEGGWSGVENTDTSTGGSCKEGSYCSYACQPGMSKTQWPSDQPSDGRSIGGLLCKDGYLYRSNTDTDYLCEWGVDAAYVVSELSNDVAICRTDYPGTENMVIPTYVQAGDSLPLTVVDQDTYYTWQGLKTSAQYYVNNAGISVEDACVWGSSSSGVGNWAPLNFGAGSSDGVAYLSLIPNPNNGNALNFNVKIVAADDSSTVNGECIYENGSFSGGSDGCTVSVTAGKAKFVLYN
glycan array binding signal (z-score) [1]: -0.133
glycan array binding signal (z-score) [2]: 0.328
glycan array binding signal (z-score) [3]: -0.696
glycan array binding signal (z-score) [4]: -0.687
glycan array binding signal (z-score) [5]: -0.399
glycan array binding signal (z-score) [6]: 0.954
glycan array binding signal (z-score) [7]: -0.421
glycan array binding signal (z-score) [8]: -0.873
glycan array binding signal (z-score) [9]: 0.897
glycan array binding signal (z-score) [10]: -0.414
glycan array binding signal (z-score) [11]: -0.045
glycan array binding signal (z-score) [12]: -0.524
glycan array binding signal (z-score) [13]: 0.083
glycan array binding signal (z-score) [14]: -1.29
glycan array binding signal (z-score) [15]: 0.004
glycan array binding signal (z-score) [16]: 0.583
glycan array binding signal (z-score) [17]: -0.752
glycan array binding signal (z-score) [18]: -0.207
glycan array binding signal (z-score) [19]: -0.09
glycan array binding signal (z-score) [20]: -0.204
glycan array binding signal (z-score) [21]: 0.297
glycan array binding signal (z-score) [22]: 0.486
glycan array binding signal (z-score) [23]: 0.275
glycan array binding signal (z-score) [24]: -0.667
glycan array binding signal (z-score) [25]: -0.35
glycan array binding signal (z-score) [26]: 0.324
glycan array binding signal (z-score) [27]: -1.06
glycan array binding signal (z-score) [28]: 1.62
glycan array binding signal (z-score) [29]: 1.03
glycan array binding signal (z-score) [30]: -1.49
glycan array binding signal (z-score) [31]: -0.222
glycan array binding signal (z-score) [32]: -0.388
glycan array binding signal (z-score) [33]: 0.366
glycan array binding signal (z-score) [34]: 0.169
glycan array binding signal (z-score) [35]: 0.728
glycan array binding signal (z-score) [36]: 0.69
glycan array binding signal (z-score) [37]: -0.669
glycan array binding signal (z-score) [38]: 0.241
glycan array binding signal (z-score) [39]: 1.35
glycan array binding signal (z-score) [40]: 0.419
glycan array binding signal (z-score) [41]: -0.149
glycan array binding signal (z-score) [42]: 0.026
glycan array binding signal (z-score) [43]: 0.099
glycan array binding signal (z-score) [44]: -0.432
glycan array binding signal (z-score) [45]: -0.353
